# Values of other authors in US20060039865A1, “Pharmaceutical compositions and methods for the prevention of drug misuse” (priority 2004, published 2006).
# Conditions: list of urine indicators given by way of example; suffixes (H), (OS), (AC), (AL) not explained
row,Molecule,COLOR (urine color caused by the indicator)
1,CCOc1ccc(/N=N/c2ccc(N)cc2N)cc1 [Ethoxazene],"orange, red, orange-red, pink"
2,Cc1cc(-c2ccc(/N=N/c3ccc4c(S(=O)(=O)O)cc(S(=O)(=O)O)c(N)c4c3O)c(C)c2)ccc1/N=N/c1ccc2c(S(=O)(=O)O)cc(S(=O)(=O)O)c(N)c2c1O [Evans blue],blue
3,CN(C)c1ccc2nc3ccc(=[N+](C)C)cc-3sc2c1 [Methylene blue],"blue, green, blue-green, yellow-brown,"
4,Nc1ccc(/N=N/c2ccccc2)c(N)n1 [Phenazopyridine],orange
5,"O=C1OC(c2ccc(O)cc2)(c2ccc(O)cc2)c2ccccc21 [Phenolphthalein(AL), Phenolphthalein]","pink, red, red-brown"
6,"O=S1(=O)OC(c2ccc(O)cc2)(c2ccc(O)cc2)c2ccccc21 [Phenolsulfonphthalein(AL), Phenolsulfonphthalein]","red, red-purple"
7,Eosin dyes [Eosin dyes(H)],"brown, red, pink"
8,Ferrous salts,"black, dark"
9,Melanin [Melanin(OS)],"black, dark"

# Same assay, conditions: list of urine indicators given by way of example; suffixes (H), (OS), (AC), (AL) not explained; listed as Phenazopyridine(AC)
row,Molecule,COLOR (urine color caused by the indicator)
1,Nc1ccc(/N=N/c2ccccc2)c(N)n1 [Phenazopyridine],"orange-red, red, orange"
